Measurements reported in PubChem BioAssay AID1259254 (NCATS, 2017).
Here is a random part of about 59,000 reagents. About 1,550 of all reagents (2.6%) were called active. 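G2 share is only a proxy for re-replication; each gene was hit by three separate siRNAs, and active genes were retested.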 Raw values vary from plate to plate and are shown uncorrected. The numbers tell different reagents against one gene apart. The record does not give: the amount of reagent.

Aim: 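Gene knock-downs that lead to re-replication, shown by excess G2 DNA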 (primary screen)
Cell system: human HCT116 colorectal cancer cells
Knock-down reagent: single siRNA against human genes
Timing: 3 days
Measured: 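Imaged Hoechst DNA stain sorts each cell into a cycle phase by DNA amount; per plate, G2 fraction set to 0% for non-targeting and 100% for GMNN siRNA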
Direction: G2 robust z-score and G2 cells, % of GMNN control: higher = more G2 cells, more excess DNA replication; raw share of cells in G2: higher = larger share of cells with G2 DNA content
Hit rule: 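An siRNA counts as active if its G2 robust z-score lies at least 5 MADs above the screen median; here such calls match roughly 38% of GMNN control or more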

no.	gene	reagent	G2 robust z-score	G2 cells, % of GMNN control	raw share of cells in G2 (%)	outcome
1	MAN2B1	1	0.477	6.33	7.98	inactive
2	MAN2B1	2	-1.44	-7.19	0.822	inactive
3	MAN2B1	3	0.221	4.52	7.11	inactive
4	KRT38	1	-0.483	-0.428	5.11	inactive
5	KRT38	2	-0.0928	2.31	5.59	inactive
6	KRT38	3	6.08	45.7	21.1	active
7	WDR36	1	-0.259	1.15	5.18	inactive
8	WDR36	2	0.809	8.66	7.87	inactive
9	WDR36	3	1.28	12	11.7	inactive
10	PPP1R3D	1	-1.36	-6.6	2.65	inactive
11	PPP1R3D	2	2.41	20	10.3	inactive
12	PPP1R3D	3	-0.509	-0.616	3.31	inactive
13	VNN3P	1	3.78	29.6	19.4	inactive
14	VNN3P	2	-1.17	-5.3	2.54	inactive
15	VNN3P	3	0.542	6.78	7.16	inactive
16	AKAP10	1	3.15	25.1	12.5	inactive
17	AKAP10	2	-0.603	-1.27	5.86	inactive
18	AKAP10	3	0.229	4.58	5.69	inactive
19	OMG	1	1.46	13.3	10.2	inactive
20	OMG	2	0.446	6.1	7.23	inactive
21	OMG	3	-1.01	-4.13	1.79	inactive
22	MMP11	1	5.97	44.9	21.2	active
23	MMP11	2	-0.407	0.105	4.94	inactive
24	MMP11	3	-1.02	-4.2	2.34	inactive
25	OIT3	1	-0.526	-0.733	3.34	inactive
26	OIT3	2	-0.216	1.44	3.44	inactive
27	OIT3	3	-0.2	1.56	3.26	inactive
28	MED19	1	-0.0941	2.31	4.41	inactive
29	MED19	2	-0.303	0.836	3.42	inactive
30	MED19	3	1.69	14.9	7.94	inactive
31	COX4I2	1	0.491	6.42	7.17	inactive
32	COX4I2	2	4.9	37.4	17.7	inactive
33	COX4I2	3	1.66	14.6	11.5	inactive
34	UBL4B	1	0.33	5.29	5.5	inactive
35	UBL4B	2	-0.331	0.639	3.17	inactive
36	UBL4B	3	0.207	4.43	4.16	inactive
37	RAN	1	0.0923	3.62	6.06	inactive
38	RAN	2	-0.707	-2.01	3.48	inactive
39	RAN	3	3.8	29.7	15.2	inactive
40	EDARADD	1	-0.336	0.601	4.4	inactive
41	EDARADD	2	2.45	20.2	9.52	inactive
42	EDARADD	3	-0.277	1.02	2.95	inactive
43	KCNN3	1	-0.422	-0.00257	5.29	inactive
44	KCNN3	2	0.514	6.58	7.01	inactive
45	KCNN3	3	5.22	39.7	19.9	active
46	CFAP97	1	-0.321	0.712	4.63	inactive
47	CFAP97	2	1.32	12.3	10.3	inactive
48	CFAP97	3	3.76	29.4	12.3	inactive
49	COL10A1	1	0.224	4.54	5.26	inactive
50	COL10A1	2	0.231	4.59	7	inactive
51	COL10A1	3	-0.0309	2.75	4.11	inactive
52	PSMA5	1	3.96	30.8	16.3	inactive
53	PSMA5	2	2.23	18.7	11.5	inactive
54	PSMA5	3	3.68	28.9	14.7	inactive
55	LRRD1	1	-0.88	-3.22	3.45	inactive
56	LRRD1	2	0.743	8.2	6.79	inactive
57	LRRD1	3	-0.94	-3.64	2.07	inactive
58	ZNF782	1	-0.333	0.626	3.31	inactive
59	ZNF782	2	0.649	7.53	5.78	inactive
60	ZNF782	3	-0.13	2.05	4.25	inactive
61	MGLL	1	2.2	18.4	10.2	inactive
62	MGLL	2	-0.675	-1.78	3.56	inactive
63	MGLL	3	0.456	6.18	8.85	inactive
64	SYNM	1	-0.484	-0.44	6.19	inactive
65	SYNM	2	-0.833	-2.89	3.19	inactive
66	SYNM	3	-0.698	-1.95	3.2	inactive
67	CEP350	1	0.724	8.06	8.97	inactive
68	CEP350	2	-0.164	1.81	4.7	inactive
69	CEP350	3	0.92	9.44	6.84	inactive
70	PDS5B	1	0.124	3.84	6.49	inactive
71	PDS5B	2	1.13	10.9	8.65	inactive
72	PDS5B	3	0.646	7.51	5.98	inactive
73	CYP2C19	1	0.851	8.96	8.16	inactive
74	CYP2C19	2	2.55	20.9	12.6	inactive
75	CYP2C19	3	2.85	23	12	inactive
76	FOXJ2	1	-1.48	-7.46	3.16	inactive
77	FOXJ2	2	1.21	11.5	8.54	inactive
78	FOXJ2	3	0.256	4.77	6.32	inactive
79	KIF5C	1	2.58	21.1	13.7	inactive
80	KIF5C	2	0.507	6.54	6.6	inactive
81	KIF5C	3	0.264	4.82	6.8	inactive
82	PJVK	1	0.0876	3.58	5.01	inactive
83	PJVK	2	-0.213	1.47	3.97	inactive
84	PJVK	3	0.746	8.22	5.91	inactive
85	LINC01376	1	4.22	32.7	15.7	inactive
86	LINC01376	2	-0.0263	2.78	4.62	inactive
87	LINC01376	3	-0.341	0.57	5.03	inactive

Laid out differently: entries from further up.
gene	reagent	G2 robust z-score	G2 cells, % of GMNN control	raw share of cells in G2 (%)	outcome
VNN3P	3	0.542	6.78	7.16	inactive
AKAP10	1	3.15	25.1	12.5	inactive
AKAP10	2	-0.603	-1.27	5.86	inactive
AKAP10	3	0.229	4.58	5.69	inactive
OMG	1	1.46	13.3	10.2	inactive
OMG	2	0.446	6.1	7.23	inactive
OMG	3	-1.01	-4.13	1.79	inactive
MMP11	1	5.97	44.9	21.2	active
